Data as given in PubChem BioAssay AID686938 (Drosophila RNAi Screening Center, 2013).
In all, the deposit lists about 23,000 reagents; shown is an unselected part of those with a known target gene and a result. Over the whole deposit, 75 (0.33%) are marked active. 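Raw plate signals without normalisation; calls rest on plate z-scores that were not deposited; ratio present for only 364 wells.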 Entries without a mark were called inactive. Not given: the dose of the treatment.

- Screen: 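Fly genes required for calcium entry once internal stores are emptied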 (primary screen)
- Cell system: Drosophila S2R+ cells
- Reagents: long dsRNA against Drosophila genes, about 0.25 µg dsRNA per well, roughly 10,000 cells
- Time to read-out: 5 days of knock-down before the calcium assay
- Challenge: thapsigargin (SERCA pump blocker) to empty calcium stores; entry signal taken 4 min after adding it
- Detection: 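Per-well fluo-4 fluorescence in two replicates, unnormalised, measured in resting cells and 4 min after store depletion by the SERCA blocker thapsigargin; ratio of the two present in few wells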
- Reading the numbers: calcium entry signal: higher = stronger calcium signal after store depletion; resting calcium signal: higher = higher resting calcium signal
- Active means: 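Hit if the duplicate-averaged plate z-score for entry over resting signal is under −3; wells with weak total dye signal (Fmax z < −2) or more than 5 off-targets removed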
- Meaning of the calls: active = strongly reduced calcium entry; inactive = no strong reduction

predicted target | amplicon | calcium entry signal, replicate 1 (fluorescence units) | calcium entry signal, replicate 2 (fluorescence units) | resting calcium signal, replicate 1 (fluorescence units) | resting calcium signal, replicate 2 (fluorescence units)
CG1628 (GeneID 31990) | DRSC18109 | 5.26e7 | 3.97e7 | 2.26e7 | 1.86e7
Mpp6 (GeneID 35382) | DRSC03169 | 3.63e7 | 2.94e7 | 1.76e7 | 1.39e7
Mov10 (GeneID 36922) | DRSC07012 | 4.41e7 | 3.46e7 | 2.08e7 | 1.71e7
sut2 (GeneID 44269) | DRSC07701 | 4.36e7 | 3.37e7 | 1.91e7 | 1.59e7
Cpr92A (GeneID 42333) | DRSC16000 | 4.08e7 | 4.83e7 | 5.33e7 | 2.00e7
rdgBbeta (GeneID 37011) | DRSC07672 | 4.30e7 | 5.60e7 | 1.87e7 | 2.73e7
LManI (GeneID 34436) | DRSC02838 | 4.86e7 | 5.55e7 | 2.40e7 | 2.46e7
Dbct (GeneID 32441) | DRSC19951 | 3.10e7 | 3.05e7 | 1.45e7 | 1.46e7
CG8051 (GeneID 32925) | DRSC20077 | 4.84e7 | 4.68e7 | 2.50e7 | 2.13e7
Pmvk (GeneID 35255) | DRSC02032 | 4.46e7 | 4.68e7 | 2.19e7 | 2.04e7
PPP1R15 (GeneID 37820) | DRSC04422 | 2.98e7 | – | 1.32e7 | –
tud (GeneID 37417) | DRSC04719 | 2.98e7 | 4.32e7 | 1.74e7 | 1.91e7
Appl (GeneID 31002) | DRSC17728 | 4.35e7 | 4.80e7 | 1.87e7 | 2.20e7

Continued, starting with the last 2 of the part before.
predicted target | amplicon | calcium entry signal, replicate 1 (fluorescence units) | calcium entry signal, replicate 2 (fluorescence units) | resting calcium signal, replicate 1 (fluorescence units) | resting calcium signal, replicate 2 (fluorescence units)
tud (GeneID 37417) | DRSC04719 | 2.98e7 | 4.32e7 | 1.74e7 | 1.91e7
Appl (GeneID 31002) | DRSC17728 | 4.35e7 | 4.80e7 | 1.87e7 | 2.20e7
Nrg (GeneID 31792) | DRSC17573 | 3.06e7 | 3.22e7 | 1.54e7 | 1.62e7
Nrg (GeneID 31792) | DRSC18688 | 2.87e7 | 3.53e7 | 1.29e7 | 1.56e7
CG43740 (GeneID 31962) | DRSC17848 | 2.33e7 | 4.40e7 | 1.26e7 | 1.91e7
CG43740 (GeneID 31962) | DRSC17994 | 2.16e7 | 4.29e7 | 1.07e7 | 1.95e7
CG43740 (GeneID 31962) | DRSC23059 | 3.05e7 | 3.14e7 | 1.59e7 | 1.48e7
CG43740 (GeneID 31962) | DRSC23267 | 7.14e7 | 2.73e7 | 3.19e7 | 1.20e7
CG17734 (GeneID 41359) | DRSC15256 | 3.43e7 | 4.22e7 | 1.72e7 | 1.98e7
wus (GeneID 32683) | DRSC20278 | 2.62e7 | 2.40e7 | 1.22e7 | 1.18e7
CR31054 (GeneID 12798280) | DRSC22134 | 2.61e7 | 4.44e7 | 1.22e7 | 1.87e7
c-cup (GeneID 33360) | DRSC00458 | 3.43e7 | 3.47e7 | 1.65e7 | 1.57e7
sced (GeneID 35564) | DRSC04990 | 4.49e7 | – | 2.37e7 | –
